# Reference: PubChem BioAssay AID445 (National Center for Advancing Translational Sciences (NCATS), 2006)
# Where “and” joins values, the source holds several entries; their conditions need not be identical. Equal values may be shown once. The list shows a part of the results. The main result of the screen is listed elsewhere. These columns were measured beside it and carry no call. Most of these compounds were active or inconclusive in the main read-out, so they are no random draw. Potencies come from curve fits of mixed quality, noted in brackets.
# Experiment: IkB Signaling
# Details: ABC-DLBCL IkBa-CBG/CBR dual luciferase ratio (green luciferase fused to IkBa over red control in OCI-Ly3 lymphoma cells), 4 h
# Outline: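 Luminescence ratio of IκBα-fused green versus native red beetle luciferase in OCI-Ly3 cells, 4 h post-doxycycline with compound; red signal alone, scaled from basal (0%) to zero light (-100%), flagged nonspecific or cytotoxic effects.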
# [1] = measured here: control luc red channel unless noted
# [2] = measured here: IkB-luc green channel
# [3] = measured here: control luc red channel
compound,measurement,setting,value
Cc1cccc(CN2CCc3nc(N4CCN(c5ccccn5)CC4)ncc3C2)c1,AC50,[1],"20 µM [falling, partial curve, poor fit]"
O=C1C2CC=C(Cl)CC2C(=O)N1CC1Cc2ccccc2CO1 (centres undefined),AC50,[1],"5.01 µM [falling, partial curve]"
O=C(NCCSc1c(-c2ccc(F)cc2)[nH]c2ccccc12)c1ccc(S(=O)(=O)N2CCOCC2)cc1,AC50,[1],"7.94 µM [falling, full curve]"
CC(=O)c1ccc(NC(=O)CCc2c(C)nc3cc(-c4ccc(Cl)cc4)nn3c2C)cc1,AC50,[1],"0.0398 µM [falling, full curve]"
O=C(C1CCCCC1)N1CCC(c2nc3c(nnn3Cc3c(F)cccc3Cl)c(=O)[nH]2)CC1,AC50,[1],"25.1 µM [falling, partial curve]"
O=C(C1CC1)N1CCN(c2nc3ccc(F)cc3s2)CC1,AC50,[1],"1 µM [rising, full curve]"
CCCCOc1ccc(CNC(=O)c2cnc3sc(N4CCOCC4)nn3c2=O)cc1,AC50,[1],"39.8 µM [falling, single point]"
COc1cccc(N=C2SC(C(=O)Nc3ccc(F)cc3)CC(=O)N2C)c1 (centres undefined),AC50,[1],"25.1 µM [falling, partial curve]"
O=C(CCn1ccc2cc(S(=O)(=O)N3CCCC3)ccc21)NCc1cccc(Br)c1,AC50,[1],"39.8 µM [falling, single point]"
Cc1cc(N2CCC(C)CC2)n2ncc(-c3ccccc3)c2n1,AC50,[1],"0.0316 µM [falling, full curve]"
Cc1ccc(C(=O)NCC(c2cccnc2)N2CCc3ccccc32)cc1C (centres undefined),AC50,[1],"10 µM [falling, partial curve]"
Cc1ccc(-c2nc3ncccc3o2)cc1NC(=O)c1cccc(OCC(C)C)c1,AC50,[1],"1 µM [falling, full curve]"
COc1cc(OC)c(NS(=O)(=O)c2ccc3c(c2)NC(=O)CCS3)cc1Cl,AC50,[1],"12.6 µM [falling, partial curve]"
CC(=O)Nc1ccc(C2Nc3c(C)cc(C)cc3-c3cc(C)nn32)cc1 (centres undefined),AC50,[1],"10 µM [falling, partial curve]"
Cc1cc(C)cc(Nc2sc(C(=O)c3ccccc3)c(N)c2S(=O)(=O)c2ccccc2)c1,AC50,[1],"5.01 µM [falling, full curve, poor fit]"
O=C(Nc1nnc(-c2ccccc2Cl)o1)c1cccnc1,AC50,[1],"15.8 µM [falling, partial curve]"
O=C(COc1ccccc1-c1nc(-c2ccccc2)no1)Nc1ccccc1[N+](=O)[O-],AC50,[1],"20 µM [falling, partial curve]"
COc1ccccc1N1CCN(S(=O)(=O)c2c(C)sc3ncn(CC(=O)Nc4ccc(C(F)(F)F)cc4)c(=O)c23)CC1,AC50,[1],"3.98 µM [falling, full curve]"
Cc1ccc(-c2ccc(=O)n(CC(=O)N3CCN(c4cccc(C)c4)C(C)C3)n2)cc1 (centres undefined),AC50,[1],"20 µM [falling, partial curve]"
CC(=O)c1ccc(NC(=O)C2CCCN(S(=O)(=O)c3ccc4c(c3)CCCN4C(C)=O)C2)cc1 (centres undefined),AC50,[1],"31.6 µM [falling, partial curve]"
Cc1ccc(OCC(=O)Nc2ccccc2C(=O)OCc2cc(=O)n3ccsc3n2)cc1C,AC50,[1],"3.16 µM [falling, full curve]"
COc1ccccc1-c1nnc(SCC(=O)NC2CCCCC2)o1,AC50,[1],"1.58 µM [falling, full curve]"
CCOC(=O)c1c(NC(=O)Cc2coc3cc(C)ccc23)sc2c1CCCC2,AC50,[1],"0.251 µM [falling, full curve]"
CCC1CN(C(=O)N2CCC(C(=O)Nc3cc(C)ccc3C)CC2)c2ccccc2O1 (centres undefined),AC50,[1],"25.1 µM [falling, partial curve]"
O=C(Nc1nc2ccccc2n1CCOc1ccc(Cl)cc1)c1ccco1,AC50,[1],"25.1 µM [rising, single point] [measured here: IkB-luc green channel]"
COc1ccc(C(CC(=O)Nc2cccc(C)c2C)N2Cc3ccccc3C2=O)cc1 (centres undefined),AC50,[1],"39.8 µM [falling, single point]"
Cc1cccc(-c2cc(NC(=O)C(C)(C)C)n(-c3ccccc3)n2)c1,AC50,[1],"5.01 µM [rising, single point]"
COc1cc(-c2nnc(-c3ccco3)o2)ccc1OCc1ccccc1,AC50,[1],"39.8 µM [falling, single point]"
O=C(COc1ccc(F)cc1)Nc1ccccc1C(=O)OCc1cc(=O)n2nc(C3CC3)sc2n1,AC50,[1],"5.01 µM [falling, partial curve]"
Cc1nc2nc(SCc3ccc(F)cc3Cl)nn2c(C)c1Cc1ccccc1,AC50,[1],"39.8 µM [falling, single point]"
CC(NC(=O)c1ccc(Nc2nc3ccccc3n3nnnc23)cc1)c1ccccc1 (centres undefined),AC50,[2],"31.6 µM [rising, partial curve]"
same,AC50,[3],"0.398 µM [falling, full curve]"
COc1cccc(N2CC(NC(=O)c3ccc4c(c3)OCO4)CC2=O)c1 (centres undefined),AC50,[1],"7.94 µM [rising, single point]"
CCOc1ccc(S(=O)(=O)N(CC(=O)N2CCc3ccccc32)Cc2ccco2)cc1,AC50,[1],"10 µM [falling, partial curve]"
COC(=O)C1=C(C)N(c2cc(Cl)cc(Cl)c2)C(=O)C1,AC50,[1],"1.26 µM [falling, full curve]"
CC1CCN(S(=O)(=O)c2cc3c4c(c2)CC(=O)N4CCC3)CC1,AC50,[1],"6.31 µM [rising, single point]"
Cc1ccc(-c2c(C)n3c4c(=O)n(C)c(=O)n(C)c4nc3n2-c2cccc(O)c2)cc1,AC50,[1],"25.1 µM [falling, partial curve]"
CCOC(=O)c1cc(S(=O)(=O)N2CCN(c3cc(C)ccc3C)CC2)[nH]n1,AC50,[1],"25.1 µM [falling, single point]"
O=CCCCC=O,AC50,[1],"10 µM [rising, partial curve] [measured here: IkB-luc green channel]"
Cc1cc(C)n(CC(O)CN2c3ccccc3Sc3ccccc32)n1 (centres undefined),AC50,[2],"20 µM [falling, partial curve]"
same,AC50,[3],"12.6 µM [falling, partial curve]"
CCOC(=O)c1ccc(NC(=O)CCc2nc(-c3ccccc3Cl)no2)cc1,AC50,[1],"20 µM [falling, partial curve]"
O=C(Nc1ccc2c(c1)nc1n2CCCCC1)c1cc(S(=O)(=O)N2CCOCC2)ccc1Cl,AC50,[1],"15.8 µM [falling, partial curve]"
CCCN(CCC)C(=O)CSc1nc2ccccc2c(=O)n1Cc1ccco1,AC50,[1],"20 µM [falling, partial curve]"
COCCCNc1nc2cc(OC)c(OC)cc2c2nc(-c3ccccc3)nn12,AC50,[1],"0.126 µM [falling, full curve]"
CCCCOC(=O)CNc1nnc(SCC(=O)OCC)[nH]c1=O,AC50,[2],"10 µM [rising, partial curve]"
same,AC50,[3],"6.31 µM [rising, single point]"
COc1ccc(CNC(=O)CN2N=C(c3ccccc3)CCC2=O)c(OC)c1,AC50,[1],"20 µM [falling, partial curve, poor fit]"
COc1cc(Cl)c(C)cc1NC(=O)c1ccc2c(SCC(=O)O)c3c(nc2c1)CCCC3,AC50,[1],"10 µM [falling, partial curve]"
O=C(CSc1n[nH]c(-c2ccccc2)n1)NCCCc1ccccc1,AC50,[1],"31.6 µM [falling, single point]"
CC(C)CCNC(=O)c1ccc2c(c1)N(Cc1cccc(Cl)c1)C(=O)c1ccccc1S2,AC50,[1],"25.1 µM [falling, partial curve]"
Cc1cc2nn(-c3ccc(F)cc3)nc2cc1NC(=O)c1cccc2ccccc12,AC50,[1],"0.398 µM [rising, full curve, poor fit]"
Nc1nc(N)c2nc(-c3ccccc3)c(N)nc2n1,AC50,[2],"39.8 µM [rising, partial curve, poor fit]"
same,AC50,[3],"12.6 µM [rising, partial curve] and 15.8 µM [rising, partial curve]"
O=C(OCc1csc(-c2ccccc2)n1)c1cccs1,AC50,[1],"25.1 µM [falling, partial curve]"
Cc1ccc(OCC(=O)Nc2ccc3c(c2)nc(CCNC(=O)c2ccco2)n3C)cc1,AC50,[1],"10 µM [falling, partial curve]"
CCCc1c(OCCCOc2ccc(OCC(=O)O)cc2)ccc(CC=O)c1O,AC50,[1],"39.8 µM [falling, single point]"
O=C(Nc1ccc2oc(-c3cccnc3)nc2c1)c1ccc(-c2ccc(OC(F)(F)F)cc2)o1,AC50,[1],"3.98 µM [falling, partial curve]"
COc1ccc(N2CCN(C(=O)CN3C(=O)CSc4c3c(C)nn4-c3ccccc3)CC2)cc1,AC50,[1],"3.16 µM [rising, partial curve] [measured here: IkB-luc green channel]"
CCN(CC)c1ccc(CN(C(=O)Cc2coc3ccc(C)cc23)C2CCS(=O)(=O)C2)cc1 (centres undefined),AC50,[1],"20 µM [falling, single point]"
O=C1CC(c2ccccc2)Sc2nc(-c3ccc(F)cc3)nn21 (centres undefined),AC50,[1],"39.8 µM [falling, single point]"
CCC1CN(C(=O)N2CCC(C(=O)NCCc3ccccc3C)CC2)c2ccccc2O1 (centres undefined),AC50,[1],"12.6 µM [falling, partial curve]"
COc1ccc(C(=O)Nc2cc(C(C)C)c(O)c(S(=O)(=O)c3ccc(Cl)cc3)c2C)cc1,AC50,[1],"5.01 µM [falling, partial curve]"

# Random excerpt: three entries already listed
compound,measurement,setting,value
Cc1ccc(C(=O)NCC(c2cccnc2)N2CCc3ccccc32)cc1C (centres undefined),AC50,[1],"10 µM [falling, partial curve]"
CC(NC(=O)c1ccc(Nc2nc3ccccc3n3nnnc23)cc1)c1ccccc1 (centres undefined),AC50,[2],"31.6 µM [rising, partial curve]"
COc1ccc(CNC(=O)CN2N=C(c3ccccc3)CCC2=O)c(OC)c1,AC50,[1],"20 µM [falling, partial curve, poor fit]"

# Exported as tab-separated lines: part of the list above
compound	measurement	setting	value
Cc1ccc(-c2c(C)n3c4c(=O)n(C)c(=O)n(C)c4nc3n2-c2cccc(O)c2)cc1	AC50	[1]	25.1 µM [falling, partial curve]
CCOC(=O)c1cc(S(=O)(=O)N2CCN(c3cc(C)ccc3C)CC2)[nH]n1	AC50	[1]	25.1 µM [falling, single point]
